Results taken from PubChem BioAssay AID1508600 (Functional Genomics Laboratory (NCATS/FGL), 2020).
In all, about 53,000 sequences went through this assay and about 3,700 (7%) were called active.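 How the source made its calls: active means gene knockdowns whose robust z-score for IL-1 alpha signal is at least 2 or at most -2, so actives lie on both sides; inactive means the rest.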 The list shows a part of the results.

Experiment: Components of the Cytosolic LPS Sensing Pathway: Gene Identification via Genome-wide siRNA Screen;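 further: robust z of the log signal after scaling to non-targeting control siRNA wells of the plate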
Conditions: RAW264.7 macrophages, IL-1a HTRF, actives lie on both sides, screened at 100 nM (by protocol), cells primed 5 h with Pam3CSK4 first
Method in brief: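 Knockdown: 100 nM siRNA, 48h, RAW264.7. Stimulation: Pam3CSK4 5 h, then LipidA via TransIT-TKO 24 h. Output: supernatant IL-1a HTRF, negative-control-normalized, log robust z-score; viability by CellTiter-Glo.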

Row | Sequence | z-score
1 | GGGAGUCUUUUUGUUCCCUTT against Lypd1 | inactive: -0.961
2 | GCUAAAGAAGGUAACUCAGTT against Zfyve28 | inactive: -0.947
3 | GGAUAAGGAUGCUAAAUUCTT against Rps13 | inactive: -0.847
4 | GGGAAGUUAUAAUGGAAGUTT against Rps15a | active: 2.46
5 | CCGUCUGAUGAAAACACUATT against Itprid2 | inactive: 0.263
6 | GGAGAACAUUCCUUUACAGTT against Ces1d | inactive: 0.585
7 | GCAAAUGGUUAUGCAUACATT against Clec4a2 | inactive: 0.661
8 | GGACUGACUCUUUUUUAACTT against Uba3 | inactive: -0.697
9 | CGUAUCAACAUCUCAGAAGTT against Pcbp2 | inactive: -0.632
10 | CCCUUAGGAAACAUGUGGATT against 4930519G04Rik | inactive: -0.587
11 | GGUGAUCUUUUAUAUUGUGTT against Dmc1 | inactive: -1.36
12 | CCAUUGAUCUGAUGCAAAATT against Epcam | inactive: -0.357
13 | GGCCUUUGGUACAUGUAGUTT against Olfr692 | inactive: 0.557
14 | CGGUCAACAUCAAUGGUAATT against Gkn1 | inactive: -1.28
15 | CCCAUCUUCGUAAAGAGAATT against Mtx1 | inactive: -0.393
16 | GGAUUCAAAAAAAAAUCGCTT against A2m | inactive: 0.189
17 | GCUCAAAAGAAGUGAGCCUTT against 4631405J19Rik | inactive: -1.99
18 | GGAACACUCUGAAUUCAUUTT against Cxcl15 | inactive: 0.0905
19 | GGUUUGAUGUUAGACAACGTT against Trim34a | inactive: 0.652
20 | GGGUUUCUGACACAUUUCUTT against Tmem260 | inactive: 0.386
21 | GCUACCUAUGCCAAUAUCATT against Efemp1 | inactive: -0.787
22 | GCAGUUUGUAUUUGACCUATT against Erp44 | inactive: 0.533

Row | Sequence | z-score
23 | CCUUAGAUAUCUACUGUAATT against Trim2 | inactive: 1.37
24 | GCAUUUAUUACUGUGGAGATT against Olfr1467 | inactive: 0.45
25 | GGGAAAAUGGAAAAUACAUTT against Emc3 | active: 2.59
26 | GGUGACUGUUCAGAUGGAGTT against Zfp655 | inactive: -0.506
27 | GCUUGUAUUGCUUGUCUUUTT against Olfr172 | inactive: 1.89
28 | GCUACAAUAUGACAAGUGUTT against Adamts5 | inactive: 0.0297
29 | GGAAAGAAUGUUUUGUUUCTT against Phex | inactive: 0.0899
30 | CGAUUACAGCCUUUGUAGATT against Atp2a2 | inactive: -0.956
31 | CGGUCCCUAAGAAACUCUGTT against Tbc1d2 | inactive: 0.943
32 | GCUUUGUGGCUCAAGCCAATT against Dnajc22 | inactive: -0.339
33 | GGCUGUGCAGUCUACAAUCTT against Nsmce2 | inactive: 0.44
34 | GGUGAUUAUCGAGAUGAUCTT against Dpagt1 | inactive: -1.09
35 | GGAGAAACCUGUGUGCAGATT against Tulp4 | inactive: -1.35
36 | GGACCAUCUCUGAUGAACCTT against Fhdc1 | inactive: 0.439
37 | GCGGCUCCAAAAUUGUGCUTT against Ipo13 | inactive: 0.302
38 | GGUGCUGAGCAUGGUGUUATT against Spag4 | active: 3.17
39 | GGAAUACAGUCUUUAUAUGTT against Slco4c1 | inactive: 0.784
40 | GGCUUUGCUCGGUUUGGUATT against Zfp870 | inactive: -0.572
41 | GGUACUGAAUAGGACAAAGTT against Stra8 | inactive: -0.422
42 | GGCUGUGAUGUAAAACAGATT against Leo1 | inactive: 1
43 | GGCUAACUUUGACACGAACTT against Cyfip2 | inactive: 0.242
44 | GGCCUUCUAUACUACAGACTT against Hdac1 | inactive: -1.23

Single entries from above:
z-score, GGAUUCAAAAAAAAAUCGCTT against A2m is entered as inactive: 0.189
z-score, GGUGACUGUUCAGAUGGAGTT against Zfp655 is entered as inactive: -0.506
z-score, CGAUUACAGCCUUUGUAGATT against Atp2a2 is entered as inactive: -0.956
z-score, GCAAAUGGUUAUGCAUACATT against Clec4a2 is entered as inactive: 0.661
z-score, GGUGAUCUUUUAUAUUGUGTT against Dmc1 is entered as inactive: -1.36

(list continues)

Row | Sequence | z-score
45 | GGAGGUUCAUAUUAAAUGATT against A330041J22Rik | inactive: -1.38
46 | GGAAUUUCUUCAGGACACUTT against Procr | inactive: 0.278
47 | GGGACACAGCUAAAAGCUUTT against Fam20b | inactive: 0.146
48 | GGGUGCCGUGGUCAUUUUATT against Ccnd3 | inactive: 1.65
49 | CGCCUUGCUUUGUUACCAATT against Tshz2 | inactive: 0.625
50 | GGCACAGCGGGUGAUCAAATT against Tnfaip8l2 | inactive: -0.723
51 | GGAAGCUGAUGGCUAUGACTT against Arc | inactive: -0.943
52 | CCGUAUGAUUGUCCAAGAGTT against Nckipsd | inactive: 0.172
53 | GGUGAUAUUGCCUAGGUACTT against Fmod | inactive: -0.391
54 | GGAGUUUGAUCUGCUUCGGTT against Kctd6 | inactive: 0.367
55 | CAGAGUAUAGCAUAGUGACTT against Psg22 | inactive: -0.00244
56 | GGUGAAAACCCUAACAGUCTT against Dcaf12l2 | inactive: -1.36
57 | GGUUCUUGUUCAUUCUCUUTT against Slc4a4 | inactive: -0.0837
58 | CCACUUGAGAGGUGUUUUUTT against Ints5 | inactive: 1.57
59 | CUCACUUCCCUAUCCAGAGTT against Cracr2b | inactive: -0.349
60 | GGACAGCUACAUAAGCUUUTT against Il17d | inactive: -1.37
61 | GGACAAGCUGAAGACGCACTT against Zfp64 | active: 3.03
62 | GGAGAGUAUACCUGUCUGGTT against Fgfr4 | inactive: 1.27
63 | GGGAUUCAAACAGGUCUUGTT against Ahsg | inactive: -0.0178
64 | GGCUAGCUAACUAUCUCUGTT against Spint4 | inactive: -0.201
65 | GGAAGAUGUAUUCUUCUCCTT against Gemin4 | inactive: 0.499
66 | GGUGGAUCCCAACUGUUUCTT against Akap10 | inactive: -0.159

Row | Sequence | z-score
67 | GGUAUAGAUGACCAGAAGATT against Cwc15 | inactive: -0.189
68 | CCCAUAUCUUAAUCAAAAGTT against Akr1e1 | inactive: 1.48
69 | GGUGAUGAAGAGGUUCCCUTT against Fzd4 | inactive: -0.868
70 | GGUUAAGAGCUCUACAAAUTT against Gdpd4 | inactive: 0.702
71 | GGGCAUGUACUAUGAGCCATT against Ctsll3 | inactive: -0.888
72 | CCCAUGGGCAGAUGAAAGCTT against Olfr1441 | inactive: -0.482
73 | CGAGAACAGAGGUUUUUAATT against Mxi1 | inactive: 0.0641
74 | GCUAAGUGUAGAAAACAGGTT against Shox2 | inactive: -0.949
75 | GGCUUUUACCGCCAAGACGTT against Snx11 | inactive: -0.384
76 | GCGGGAGUACUACGUCAAUTT against Reps2 | active: -2.07
77 | GCAGUUUUGUCAAGUUAGATT against Brinp2 | inactive: -0.841
78 | GGCAGUGAAGAGAAGAAGUTT against Trub2 | inactive: -0.835
79 | GGUAUGGCGUAAACCAGCUTT against Alad | inactive: -0.715
80 | GCGGGUGUACUUAUGGUGATT against Glul | inactive: 0.47
81 | GCUGAUUUUAACAAUACCUTT against Fos | inactive: -0.895
82 | GGGCCACACAGAAAUGGUUTT against Ank1 | inactive: 0.994
83 | GGCUGAAGCAGUCUGUUGCTT against Rpp14 | inactive: -0.578
84 | GGUGACCGUUGUAACUGUGTT against Aph1c | inactive: -0.161
85 | CGAAUACGUGUCAUGAUUUTT against Nipsnap2 | inactive: 0.339
86 | GCAGACAAAGAUCCUAUGCTT against Atp2b3 | active: -2.27
87 | GGCAAGCUUACAAAAUGGATT against Pgbd5 | inactive: -0.667
88 | CGGACGAUUUCAAUAUUUUTT against Gsap | inactive: -1.46

Row | Sequence | z-score
89 | CCAAGUGGUACUAAUAAAUTT against Ptpn4 | inactive: 0.106
90 | CCCUCAAUCUAACAGUGCATT against Dsg1b | inactive: 0.75
91 | GCUCUGGACUUCGGUAGAUTT against Adrb1 | inactive: 0.983
92 | GCUACUUGAAUUUAAGGAATT against Mdfic | inactive: 0.22
93 | GCGCAAAGAAGUGACUUCATT against Txlna | inactive: 0.124
94 | CGGGAUCCAGCCUCUAAGUTT against Palm | inactive: -0.246
95 | GCCAAGUAGUAUGUUUCUUTT against Sprn | inactive: 0.464
96 | CCCUUCCUUUUACCAACAATT against Tmod4 | inactive: 0.325
97 | GCAUAAGAAGCAACGUGUGTT against Strn4 | inactive: 0.7
98 | GGAGCGAGAUACUCCUAAATT against Epha6 | inactive: -0.308
99 | GGUCAAUGGAGUAGAUUUATT against Pard3 | active: 2.24
100 | CACGACCUAGGUGUGACCATT against Arrdc2 | active: -2.31
101 | CCCUCGAGUGAUCAUUUUGTT against Opcml | inactive: -0.524
102 | GGCUAUGGAGCACUCACAATT against Pot1b | inactive: -0.177
103 | GCUAGCAAGUGAGAUGGAGTT against Mbd3l1 | inactive: 1.58
104 | GCUAUGACGAUUUCCGUUCTT against Arhgap33 | inactive: 0.915
105 | GGUUGACAUCGACCAAUCATT against Klhl1 | inactive: -1.36
106 | GCCUACAAGCCAUGAACAATT against Mybbp1a | inactive: 1.27
107 | GCCUCAGCAUUACCACUAUTT against Pof1b | inactive: -1.86
